Test results from paper PMC8811898, “Structural Insights into Methylated DNA Recognition by the Methyl-CpG Binding Domain of MBD6 from Arabidopsis thaliana”.
No constants are given. Whether binding was seen depends on the method and setting.

Molecular target: MBD domain of AtMBD6 (residues 78-140) (Arabidopsis thaliana) (UniProt Q9LTJ1)
Assay: NMR dilution series (1H-15N HSQC backbone amide chemical shifts); two-fold serial dilutions of 13C,15N-labeled protein from 200 to 3.1 uM; titration buffer 20 mM sodium phosphate pH 6.5, 150 mM sodium chloride; 20 °C; both purified

B1: MBD domain of AtMBD6 (residues 78-140) (domain or fragment, UniProt Q9LTJ1 78-140)
chain: GPLGSDNWLPPGWRVEDKIRTSGATAGSVDKYYYEPNTGRKFRSRTEVLYYLEHGTSKRGTKKAENTY
modifications: 13C, 15N-labeled
**Q.** Which binding does the source give for B1 here?
**A.** Its binding is “no binding (tested: 200 μM)”.
